# According to the supplement of paper PMC11438910:
# This is one part of the list. Only a few entries rise above the background.
# B1: 4-80.2 (protein)
# chain 1: QVQLQESGPGLVKPSETLSLTCAVSGDSFSSYWWSWIRQPPGKGLEWIGEINGNVGSTNYNPSLKSRVTISKDASKNQFSLKLSSVTAADTAVYYCARYKEYWGQGVLVTVSS
# chain 2: DVVMTQSPLSLPITPGQPASISCRSSQSLVHSNGNTYLSWYQQKPGQPPRRLIYEVSNRDSGVPDRFSGSGAGTDFTLKISRVEAEDVGVYYCGQGTHLPYSFGQGTKVEIK
# Columns and labels:
# Assay in all cases: fluorescence intensity of antibody binding to polysaccharide-coupled beads; higher = stronger binding
# [1] = biological target: pneumococcal polysaccharide Pn13
# [2] = biological target: pneumococcal polysaccharide Pn14
# [3] = biological target: pneumococcal polysaccharide Pn15A
# [4] = biological target: pneumococcal polysaccharide Pn15B
# [5] = biological target: pneumococcal polysaccharide Pn15C
# [6] = biological target: pneumococcal polysaccharide Pn15F
# [7] = biological target: pneumococcal polysaccharide Pn16A
# [8] = biological target: pneumococcal polysaccharide Pn16F
# [9] = biological target: pneumococcal polysaccharide Pn17A
# [10] = biological target: pneumococcal polysaccharide Pn17F
# [11] = biological target: pneumococcal polysaccharide Pn18A
# [12] = biological target: pneumococcal polysaccharide Pn18B
# [13] = biological target: pneumococcal polysaccharide Pn18C
# [14] = biological target: pneumococcal polysaccharide Pn18F
# [15] = biological target: pneumococcal polysaccharide Pn19A
# [16] = biological target: pneumococcal polysaccharide Pn19B
# [17] = biological target: pneumococcal polysaccharide Pn19C
# [18] = biological target: pneumococcal polysaccharide Pn19F
# [19] = biological target: pneumococcal polysaccharide Pn2
# [20] = biological target: pneumococcal polysaccharide Pn20A
# [21] = biological target: pneumococcal polysaccharide Pn20B
# [22] = biological target: pneumococcal polysaccharide Pn21
# [23] = biological target: pneumococcal polysaccharide Pn22A
# [24] = antibody concentration 0.1 ng/mL
# [25] = antibody concentration 0.534724 ng/mL
# [26] = antibody concentration 2.8593 ng/mL
# [27] = antibody concentration 15.2894 ng/mL
# [28] = antibody concentration 81.7561 ng/mL
# [29] = antibody concentration 437.17 ng/mL
# [30] = antibody concentration 2337.65 ng/mL
# [31] = antibody concentration 12500 ng/mL
binder,measurement,setting,value
B1,fluorescence intensity,[1]; [24],19.8 MFI
same,fluorescence intensity,[1]; [25],20 MFI
same,fluorescence intensity,[1]; [26],21 MFI
same,fluorescence intensity,[1]; [27],19.5 MFI
same,fluorescence intensity,[1]; [28],19 MFI
same,fluorescence intensity,[1]; [29],18 MFI
same,fluorescence intensity,[1]; [30],20.5 MFI
same,fluorescence intensity,[1]; [31],25 MFI
same,fluorescence intensity,[2]; [24],15.5 MFI
same,fluorescence intensity,[2]; [25],16 MFI
same,fluorescence intensity,[2]; [26],16.2 MFI
same,fluorescence intensity,[2]; [27],15.2 MFI
same,fluorescence intensity,[2]; [28],15.8 MFI
same,fluorescence intensity,[2]; [29],16.5 MFI
same,fluorescence intensity,[2]; [30],18.5 MFI
same,fluorescence intensity,[2]; [31],63.5 MFI
same,fluorescence intensity,[3]; [24],13.5 MFI
same,fluorescence intensity,[3]; [25],13.5 MFI
same,fluorescence intensity,[3]; [26],14 MFI
same,fluorescence intensity,[3]; [27],14.5 MFI
same,fluorescence intensity,[3]; [28],13 MFI
same,fluorescence intensity,[3]; [29],13 MFI
same,fluorescence intensity,[3]; [30],12.5 MFI
same,fluorescence intensity,[3]; [31],15.5 MFI
same,fluorescence intensity,[4]; [24],18.5 MFI
same,fluorescence intensity,[4]; [25],19 MFI
same,fluorescence intensity,[4]; [26],20 MFI
same,fluorescence intensity,[4]; [27],19.8 MFI
same,fluorescence intensity,[4]; [28],20.5 MFI
same,fluorescence intensity,[4]; [29],20 MFI
same,fluorescence intensity,[4]; [30],21.2 MFI
same,fluorescence intensity,[4]; [31],28 MFI
same,fluorescence intensity,[5]; [24],17 MFI
same,fluorescence intensity,[5]; [25],16.5 MFI
same,fluorescence intensity,[5]; [26],16.2 MFI
same,fluorescence intensity,[5]; [27],15 MFI
same,fluorescence intensity,[5]; [28],16.5 MFI
same,fluorescence intensity,[5]; [29],19 MFI
same,fluorescence intensity,[5]; [30],19.5 MFI
same,fluorescence intensity,[5]; [31],20 MFI
same,fluorescence intensity,[6]; [24],17.2 MFI
same,fluorescence intensity,[6]; [25],17.5 MFI
same,fluorescence intensity,[6]; [26],18.5 MFI
same,fluorescence intensity,[6]; [27],17.2 MFI
same,fluorescence intensity,[6]; [28],19.5 MFI
same,fluorescence intensity,[6]; [29],17.5 MFI
same,fluorescence intensity,[6]; [30],18.5 MFI
same,fluorescence intensity,[6]; [31],24 MFI
same,fluorescence intensity,[7]; [24],16.8 MFI
same,fluorescence intensity,[7]; [25],14.5 MFI
same,fluorescence intensity,[7]; [26],14 MFI
same,fluorescence intensity,[7]; [27],12.5 MFI
same,fluorescence intensity,[7]; [28],15.8 MFI
same,fluorescence intensity,[7]; [29],15 MFI
same,fluorescence intensity,[7]; [30],16.5 MFI
same,fluorescence intensity,[7]; [31],21.2 MFI
same,fluorescence intensity,[8]; [24],23.5 MFI
same,fluorescence intensity,[8]; [25],24 MFI
same,fluorescence intensity,[8]; [26],26.5 MFI
same,fluorescence intensity,[8]; [27],26.2 MFI
same,fluorescence intensity,[8]; [28],25 MFI
same,fluorescence intensity,[8]; [29],26.8 MFI
same,fluorescence intensity,[8]; [30],28 MFI
same,fluorescence intensity,[8]; [31],34 MFI
same,fluorescence intensity,[9]; [24],20.2 MFI
same,fluorescence intensity,[9]; [25],22.5 MFI
same,fluorescence intensity,[9]; [26],20.5 MFI
same,fluorescence intensity,[9]; [27],20.2 MFI
same,fluorescence intensity,[9]; [28],21.5 MFI
same,fluorescence intensity,[9]; [29],21 MFI
same,fluorescence intensity,[9]; [30],22 MFI
same,fluorescence intensity,[9]; [31],24 MFI
same,fluorescence intensity,[10]; [24],29.8 MFI
same,fluorescence intensity,[10]; [25],25 MFI
same,fluorescence intensity,[10]; [26],27.2 MFI
same,fluorescence intensity,[10]; [27],27 MFI
same,fluorescence intensity,[10]; [28],27 MFI
same,fluorescence intensity,[10]; [29],25.8 MFI
same,fluorescence intensity,[10]; [30],28 MFI
same,fluorescence intensity,[10]; [31],30.2 MFI
same,fluorescence intensity,[11]; [24],26.2 MFI
same,fluorescence intensity,[11]; [25],24 MFI
same,fluorescence intensity,[11]; [26],23.5 MFI
same,fluorescence intensity,[11]; [27],24.5 MFI
same,fluorescence intensity,[11]; [28],23.5 MFI
same,fluorescence intensity,[11]; [29],24.2 MFI
same,fluorescence intensity,[11]; [30],26.2 MFI
same,fluorescence intensity,[11]; [31],29.5 MFI
same,fluorescence intensity,[12]; [24],31.2 MFI
same,fluorescence intensity,[12]; [25],30.5 MFI
same,fluorescence intensity,[12]; [26],31 MFI
same,fluorescence intensity,[12]; [27],31.5 MFI
same,fluorescence intensity,[12]; [28],30 MFI
same,fluorescence intensity,[12]; [29],30.5 MFI
same,fluorescence intensity,[12]; [30],32.8 MFI
same,fluorescence intensity,[12]; [31],38.5 MFI
same,fluorescence intensity,[13]; [24],20 MFI
same,fluorescence intensity,[13]; [25],18.5 MFI
same,fluorescence intensity,[13]; [26],18.5 MFI
same,fluorescence intensity,[13]; [27],20 MFI
same,fluorescence intensity,[13]; [28],18.5 MFI
same,fluorescence intensity,[13]; [29],19.2 MFI
same,fluorescence intensity,[13]; [30],20 MFI
same,fluorescence intensity,[13]; [31],20.5 MFI
same,fluorescence intensity,[14]; [24],22 MFI
same,fluorescence intensity,[14]; [25],24.5 MFI
same,fluorescence intensity,[14]; [26],23.8 MFI
same,fluorescence intensity,[14]; [27],22.5 MFI
same,fluorescence intensity,[14]; [28],24 MFI
same,fluorescence intensity,[14]; [29],23.2 MFI
same,fluorescence intensity,[14]; [30],27 MFI
same,fluorescence intensity,[14]; [31],33.5 MFI
same,fluorescence intensity,[15]; [24],19 MFI
same,fluorescence intensity,[15]; [25],20 MFI
same,fluorescence intensity,[15]; [26],18.2 MFI
same,fluorescence intensity,[15]; [27],19 MFI
same,fluorescence intensity,[15]; [28],18.5 MFI
same,fluorescence intensity,[15]; [29],19 MFI
same,fluorescence intensity,[15]; [30],19.5 MFI
same,fluorescence intensity,[15]; [31],23 MFI
same,fluorescence intensity,[16]; [24],32 MFI
same,fluorescence intensity,[16]; [25],28.5 MFI
same,fluorescence intensity,[16]; [26],26.5 MFI
same,fluorescence intensity,[16]; [27],31.8 MFI
same,fluorescence intensity,[16]; [28],28.5 MFI
same,fluorescence intensity,[16]; [29],26.5 MFI
same,fluorescence intensity,[16]; [30],34.5 MFI
same,fluorescence intensity,[16]; [31],70.5 MFI
same,fluorescence intensity,[17]; [24],26.5 MFI
same,fluorescence intensity,[17]; [25],26 MFI
same,fluorescence intensity,[17]; [26],24.5 MFI
same,fluorescence intensity,[17]; [27],27 MFI
same,fluorescence intensity,[17]; [28],25.5 MFI
same,fluorescence intensity,[17]; [29],27.2 MFI
same,fluorescence intensity,[17]; [30],29 MFI
same,fluorescence intensity,[17]; [31],55 MFI
same,fluorescence intensity,[18]; [24],26 MFI
same,fluorescence intensity,[18]; [25],28 MFI
same,fluorescence intensity,[18]; [26],25.8 MFI
same,fluorescence intensity,[18]; [27],28 MFI
same,fluorescence intensity,[18]; [28],27.5 MFI
same,fluorescence intensity,[18]; [29],26 MFI
same,fluorescence intensity,[18]; [30],28.8 MFI
same,fluorescence intensity,[18]; [31],33 MFI
same,fluorescence intensity,[19]; [24],19 MFI
same,fluorescence intensity,[19]; [25],20.5 MFI
same,fluorescence intensity,[19]; [26],19 MFI
same,fluorescence intensity,[19]; [27],19.5 MFI
same,fluorescence intensity,[19]; [28],19.5 MFI
same,fluorescence intensity,[19]; [29],21 MFI
same,fluorescence intensity,[19]; [30],23.5 MFI
same,fluorescence intensity,[19]; [31],28 MFI
same,fluorescence intensity,[20]; [24],24.8 MFI
same,fluorescence intensity,[20]; [25],23 MFI
same,fluorescence intensity,[20]; [26],22.5 MFI
same,fluorescence intensity,[20]; [27],24 MFI
same,fluorescence intensity,[20]; [28],23.5 MFI
same,fluorescence intensity,[20]; [29],21.5 MFI
same,fluorescence intensity,[20]; [30],27.5 MFI
same,fluorescence intensity,[20]; [31],53.5 MFI
same,fluorescence intensity,[21]; [24],23.8 MFI
same,fluorescence intensity,[21]; [25],24.5 MFI
same,fluorescence intensity,[21]; [26],24.5 MFI
same,fluorescence intensity,[21]; [27],25.5 MFI
same,fluorescence intensity,[21]; [28],22.5 MFI
same,fluorescence intensity,[21]; [29],25 MFI
same,fluorescence intensity,[21]; [30],25 MFI
same,fluorescence intensity,[21]; [31],30 MFI
same,fluorescence intensity,[22]; [24],19.5 MFI
same,fluorescence intensity,[22]; [25],20 MFI
same,fluorescence intensity,[22]; [26],18.5 MFI
same,fluorescence intensity,[22]; [27],19 MFI
same,fluorescence intensity,[22]; [28],20 MFI
same,fluorescence intensity,[22]; [29],18.5 MFI
same,fluorescence intensity,[22]; [30],21.8 MFI
same,fluorescence intensity,[22]; [31],16.2 MFI
same,fluorescence intensity,[23]; [24],22 MFI
same,fluorescence intensity,[23]; [25],23.5 MFI
same,fluorescence intensity,[23]; [26],19 MFI
same,fluorescence intensity,[23]; [27],23 MFI

# 2 neighbouring entries out of the list so far, quoted:
binder,measurement,setting,value
B1,fluorescence intensity,[19]; [30],23.5 MFI
same,fluorescence intensity,[19]; [31],28 MFI

# Some of the entries so far, with tabs:
binder	measurement	setting	value
B1	fluorescence intensity	[18]; [26]	25.8 MFI
same	fluorescence intensity	[18]; [27]	28 MFI

# A second format for part of the listing above.
binder	measurement	setting	value
B1	fluorescence intensity	[20]; [29]	21.5 MFI
same	fluorescence intensity	[20]; [30]	27.5 MFI
same	fluorescence intensity	[20]; [31]	53.5 MFI
same	fluorescence intensity	[21]; [24]	23.8 MFI
same	fluorescence intensity	[21]; [25]	24.5 MFI
same	fluorescence intensity	[21]; [26]	24.5 MFI
